Data as given in US20180305292A1, “DERIVATIVES OF NONSTEROIDAL ANTI-INFLAMMATORY DRUGS” (priority 2015, published 2018).
At least one compound was matched to its structure with a doubt left.

Tested on: MOG35-55-induced experimental autoimmune encephalomyelitis (EAE)
Assay: MOG35-55-induced experimental autoimmune encephalomyelitis (EAE) in C57BL/6 mice
Assay type: in vivo
Conditions: oral route, 11.54 mM dose formulation, 10 ml/kg, start day 1, observations day 1 to 13

Q: For COC(=O)/C=C/C(=O)OCCOCCOCCOCCOC(=O)Cc1c(-c2ccc(Cl)cc2)c(-c2ccccc2)c2n1CC(C)(C)C2 [Example 8, (E)-But-2-enedioic acid 2-{2-[2-(2-{2-[2-(4-chloro-phenyl)-6,6-dimethyl-1-phenyl-6,7-dihydro-5H-pyrrolizin-3-yl]-acetoxy}-ethoxy)-ethoxy]-ethoxy}-ethyl ester methyl ester], which “Efficacy of treatment in EAE (clinical score, FIG. 3)” value is on record?
A: effective
